The subject of this assay is BDF1 mice, B16 melanoma ip, median survival T/C. Description: NCI In Vivo Anticancer Drug Screen. Data for tumor model B16 Melanoma (intraperitoneal) in B6D2F1 (BDF1) mice. The note with it: T/C endpoint: median survival time, higher T/C = longer survival. The method in brief: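 Survival or tumor size is measured after treatment of tumor-bearing mice and normalised to the vehicle-treated control group.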

[1] abbreviates: dose: 50.0 mg/kg/injection, schedule: Q01DX009 (ip), vehicle: saline.
[2] abbreviates: dose: 200.0 mg/kg/injection, schedule: Q01DX009 (ip), vehicle: Klucel (hydroxypropylcellulose) (HPC).
Where [3] appears, read: dose: 100.0 mg/kg/injection, schedule: Q01DX009 (ip), vehicle: saline with Tween-80.
[4] abbreviates: dose: 200.0 mg/kg/injection, schedule: Q01DX009 (ip), vehicle: saline with Tween-80.
Where [5] appears, read: dose: 12.5 mg/kg/injection, schedule: Q01DX009 (ip), vehicle: Klucel (hydroxypropylcellulose) (HPC).
Where [6] appears, read: dose: 25.0 mg/kg/injection, schedule: Q01DX009 (ip), vehicle: Klucel (hydroxypropylcellulose) (HPC).
Where [7] appears, read: dose: 400.0 mg/kg/injection, schedule: Q01DX009 (ip), vehicle: saline with Tween-80.
The mark [8] stands for this setting: dose: 100.0 mg/kg/injection, schedule: Q01DX009 (ip), vehicle: saline.
Where [9] appears, read: dose: 50.0 mg/kg/injection, schedule: Q01DX009 (ip), vehicle: Klucel (hydroxypropylcellulose) (HPC).
The mark [10] stands for this setting: dose: 25.0 mg/kg/injection, schedule: Q01DX009 (ip), vehicle: carboxymethylcellulose (CMC).

The list is a part of this screen's results and no random one: it gathers tests that were run many times, whatever their T/C, doses with no T/C, and many T/C values between a quarter and a half above the control. Other doses and runs of a compound stand elsewhere. T/C: endpoint of the treated group in % of that of the vehicle group. Some entries give survivors of the animals treated and no T/C: the source holds a T/C of zero for them, seemingly a mark for toxic or unscored doses. Some survivor counts are full or nearly so, which does not show that the dose was tolerated: the source hardly ever lists a survival T/C far under the control, and the zero likely stands for such cases as well. Survivors were counted at the toxicity check, usually on the fifth day, unless a day is given; later deaths do not show. Schedule codes are those of the source, taken here to give the interval after Q, in days (D) or hours (H), and the number of doses after X. Some entries were tested several times; their values stand side by side, smallest first. Signs of the kind (2×) give the number of equal values in this list. Where survival is the endpoint, the PubChem record calls one and a half times the control and up active, and a quarter to a half above the control has no call in these data; cut-offs in other NCI protocols can differ. Some T/C values carry the count of animals alive at the toxicity check (mostly the fifth day); without a count, all were alive then.

Turning to `C[N+](C)(C)C`, the T/C (dose: 0.75 mg/kg/injection, schedule: Q01DX009 (ip), vehicle: saline) is 127 % of control. Also, the survivor count by setting is: (dose: 1.5 mg/kg/injection, schedule: Q01DX009 (ip), vehicle: saline) 0 of 10; (dose: 6.0 mg/kg/injection, schedule: Q01DX009 (ip), vehicle: saline) 0 of 10; (dose: 12.0 mg/kg/injection, schedule: Q01DX009 (ip), vehicle: saline) 0 of 10; (dose: 25.0 mg/kg/injection, schedule: Q01DX009 (ip), vehicle: saline) 0 of 10; under setting [1], 0 of 10.

For the compound `O=C(OC1CCCCCCC1)C(F)(F)F`, the T/C under setting [2] was 125 % of control.

As to `CSc1nc(N)cc(NC(=O)CCl)n1`, the survivor count is given as 6 of 6 under setting [3] and 3 of 6 under setting [4].

For the compound `O=S(=O)(/N=C1C=C/C(=N/S(=O)(=O)c2ccccc2)C2C3C=CC(C3)C/12)c1ccccc1` (stereo not given), under “dose: 400.0 mg/kg/injection, schedule: Q04DX003 (ip), vehicle: Klucel (hydroxypropylcellulose) (HPC)”, the survivor count is 9 of 10.

For the compound `C1CC[N-]CC1.C1CC[N-]CC1.[Cl][Pt+2]([Cl])([Cl])[Cl]`, the survivor count (dose: 400.0 mg/kg/injection, schedule: Q01DX009 (ip), vehicle: Klucel (hydroxypropylcellulose) (HPC)) was 3 of 10.

For `COc1ccccc1N1CCN(CCc2c[nH]c3cc4c(cc23)OCO4)CC1`, the survivor count was 10 of 10 (dose: 3.12 mg/kg/injection, schedule: Q01DX009 (ip), vehicle: Klucel (hydroxypropylcellulose) (HPC)); 10 of 10 under setting [5]; 0 of 10 under setting [6].

For `[Cu+2].[NH-]CC(=O)O.[NH-]CC(=O)O`, the survivor count (dose: 20.0 mg/kg/injection, schedule: Q01DX009 (ip), vehicle: saline) is 0 of 10.

With `CN(Cc1cnc2nc(N)nc(N)c2n1)c1c(Cl)cc(C(=O)NC(CCC(=O)O)C(=O)O)cc1Cl` (stereo not given), the survivor count is, setting by setting: (dose: 70.0 mg/kg/injection, schedule: Q01DX011 (ip), vehicle: saline) 10 of 10; (dose: 100.0 mg/kg/injection, schedule: Q01DX009 (ip), vehicle: Klucel (hydroxypropylcellulose) (HPC)) 10 of 10.

As to `CCCCCCCCCCCCCCCC(=O)N(CCCN(CC)CC)C(C)CCCN(CC)CC` (stereo not given), the survivor count reads like this: under setting [5], 9 of 10; (dose: 12.5 mg/kg/injection, schedule: Q01DX009 (ip), vehicle: water) 10 of 10; under setting [6], 1 of 10.

With `C=CCNc1ccc(OC)cc1`, the survivor count under setting [4] is reported as 6 of 10.

`CN(C)c1nc(N(C)C)nc(N(C)C)n1`: the T/C by setting is: (dose: 25.0 mg/kg/injection, schedule: Q01DX009 (ip), vehicle: saline with Tween-80, evaluated on day 45) 101 % of control; (dose: 25.0 mg/kg/injection, schedule: Q01DX009 (ip), vehicle: saline with Tween-80, evaluated on day 60) 97, 98 (2×), 100 (3×), 103, 105, 107 [9 of 10 alive], 126 % of control; (dose: 50.0 mg/kg/injection, schedule: Q01DX009 (ip), vehicle: saline with Tween-80, evaluated on day 45) 109 % of control; (dose: 50.0 mg/kg/injection, schedule: Q01DX009 (ip), vehicle: saline with Tween-80, evaluated on day 60) 98, 100, 101 (2×), 102, 103, 105 [9 of 10 alive], 109, 110, 115 % of control; (dose: 100.0 mg/kg/injection, schedule: Q01DX009 (ip), vehicle: saline with Tween-80, evaluated on day 45) 102 % of control; (dose: 100.0 mg/kg/injection, schedule: Q01DX009 (ip), vehicle: saline with Tween-80, evaluated on day 60) 98 (2×), 107 (2×), 108, 109, 110, 111, 112, 113 % of control [9 of 10 alive]. The T/C under setting [4] is 86 [9 of 10 alive], 99 [9 of 10 alive], 104 % of control. The survivor count reads like this: (dose: 160.0 mg/kg/injection, schedule: Q01DX009 (ip), vehicle: saline with Tween-80) 9 of 10; under setting [4], 9 of 10 (2×) and 10 of 10; under setting [7], 0 of 10, 1 of 10, 2 of 10, 3 of 10, 4 of 10, 5 of 10, 6 of 10, 7 of 10; (dose: 400.0 mg/kg/injection, schedule: Q02DX009 (ip), vehicle: Klucel (hydroxypropylcellulose) (HPC)) 9 of 10.

For the compound `CN1CCC=C(CN2c3ccccc3Sc3ccccc32)C1`, the survivor count under setting [8] is listed as 5 of 10.

For the compound `COc1ccccc1CC(C)N` (stereo not given), the survivor count (dose: 80.0 mg/kg/injection, schedule: Q01DX009 (ip), vehicle: saline with Tween-80) is listed as 2 of 6.

`C[n+]1ccc2cc(N)c3c4ccccc4sc3c2c1`: the survivor count is recorded as 10 of 10 under setting [6]; 0 of 10 under setting [9]; 0 of 10 under setting [1]; 0 of 10 under setting [8]; 0 of 10 (dose: 200.0 mg/kg/injection, schedule: Q01DX009 (ip), vehicle: saline).

Regarding `Nc1nc2nc[nH]c2c(=O)[nH]1`, the survivor count reads like this: (dose: 400.0 mg/kg/injection, schedule: Q01DX009 (ip), vehicle: suspension in saline) 1 of 10; (dose: 800.0 mg/kg/injection, schedule: Q01DX009 (ip), vehicle: suspension in saline) 0 of 10.

On to `COC1C(O)C(C)OC(OC2C(Oc3cccc4c(O)c5c(=O)oc6ccc(C)c7c(=O)oc(c34)c5c67)OC(C)C(O)C2O)C1O` (stereo not given), for which the survivor count runs as follows: (dose: 12.5 mg/kg/injection, schedule: Q01DX009 (ip), vehicle: carboxymethylcellulose (CMC)) 10 of 10; under setting [10], 8 of 10; (dose: 50.0 mg/kg/injection, schedule: Q01DX009 (ip), vehicle: carboxymethylcellulose (CMC)) 9 of 10; (dose: 100.0 mg/kg/injection, schedule: Q01DX009 (ip), vehicle: carboxymethylcellulose (CMC)) 4 of 10; under setting [2], 2 of 10; (dose: 200.0 mg/kg/injection, schedule: Q01DX009 (ip), vehicle: carboxymethylcellulose (CMC)) 0 of 10. Moreover, where the note is “dose: 256.0 mg/kg/injection, schedule: Q04DX003 (ip), vehicle: saline with Tween-80”, the survivor count is 5 of 8. For the same compound, the T/C is 146 % of control (dose: 12.5 mg/kg/injection, schedule: Q01DX009 (ip), vehicle: saline with Tween-80); 125 % of control under setting [6]; 139 % of control under setting [10]; 126 % of control under setting [9].

As to `COC(=O)c1ccc(Cl)nc1`, the survivor count under setting [2] was 9 of 10.

For the compound `CCOc1ccc([NH-])c([NH-])c1.[Cl][Pt+2][Cl]`, the survivor count (dose: 40.0 mg/kg/injection, schedule: Q01DX009 (ip), vehicle: distilled water + Tween-80) is reported as 10 of 10.

Consider `NC(=S)N/N=C/c1ccc(OC(F)(F)F)cn1`, for which the survivor count (dose: 25.0 mg/kg/injection, schedule: Q01DX009 (ip), vehicle: saline with Tween-80) is given as 7 of 10.

`O=C1C=CC(=O)c2c(Cl)ccc(O)c21`: the survivor count runs as follows: (dose: 2.5 mg/kg/injection, schedule: Q01DX009 (ip), vehicle: Klucel (hydroxypropylcellulose) (HPC)) 10 of 10; (dose: 5.0 mg/kg/injection, schedule: Q01DX009 (ip), vehicle: Klucel (hydroxypropylcellulose) (HPC)) 10 of 10; (dose: 10.0 mg/kg/injection, schedule: Q01DX009 (ip), vehicle: Klucel (hydroxypropylcellulose) (HPC)) 8 of 10.

Regarding `Cc1ccc(NC(=O)Nc2cccc(Cl)c2C)cc1NC(=O)Nc1cccc(Cl)c1C`, the survivor count is listed as 10 of 10 under setting [3], 10 of 10 under setting [4] and 10 of 10 under setting [7].

For the compound `Cc1cccc(/C=N\OCCc2ccccc2)n1`, the survivor count under setting [7] is given as 10 of 10.

With `N#Cc1ccc(Br)cc1[N+](=O)[O-]`, the survivor count reads like this: (dose: 1.56 mg/kg/injection, schedule: Q01DX009 (ip), vehicle: Klucel (hydroxypropylcellulose) (HPC)) 10 of 10; (dose: 3.13 mg/kg/injection, schedule: Q01DX009 (ip), vehicle: Klucel (hydroxypropylcellulose) (HPC)) 10 of 10; (dose: 6.25 mg/kg/injection, schedule: Q01DX009 (ip), vehicle: Klucel (hydroxypropylcellulose) (HPC)) 10 of 10.

The values are drawn from PubChem BioAssay AID192 (DTP/NCI, 2004).
